# Measurements published in PubChem BioAssay AID2685 (National Center for Advancing Translational Sciences (NCATS), 2010).
# The list shows a part of the results. These are further read-outs of the screen, such as a control signal, another cell line or another target. No call is given for them. The list favours compounds with an active or inconclusive main result. The note in brackets gives the kind of curve behind each potency; many fits are weak.
# Assay: qHTS Assay for Lipid Storage Modulators in Drosophila S3 Cells;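 on cell number change: cells counted by Cell Tracker Red CMTPX staining in the red channel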
# Conditions: BODIPY lipid droplet fluorescence, 18-24 h; for cell number change: measured here: cell count max response, cells fed with added oleic acid
# Description: NIH Molecular Libraries Probe Production Centers Network [MLPCN] NIH Chemical Genomics Center [NCGC] MLPCN Grant: 1 R03 MH085686-01 Assay Submitter (PI): Beller, Mathias; Max-Planck-Institut fur Biophysikalische Chemie NCGC Assay Overview: Storing lipids as a reservoir for energy or the anabolism of elementary metabolites is a common feature of probably all cells and is conserved from bacteria to humans. The universal cellular lipid storage organelle is the so-called lipid storage droplet (LD). Although ubiquitous, LDs share a simple structure composed of a hydrophobic core that harbors the storage lipids, which is shielded by a droplet-specific phospholipid monolayer to which proteins are attached. The current model of LD biogenesis involves an incorporation of the lipid core into the membrane leaflets of the endoplasmic reticulum (ER) followed by a subsequent budding-like maturation of a LD, which ultimately pinches off. Once released, LD volume can increase by localized lipogenesis or fusion of existing droplet. Storage lipids are re-mobilized enzymatically by lipase activity. Lipase regulation in the adipocyte is heavily studied and involves multiple components including catecholamine signaling, the LD-associated proteins Perilipin and comparative gene identification (CGI-58) and at least two lipases named hormone sensitive lipase (HSL) and adipocyte triglyceride lipase (ATGL). LD regulation outside of the adipocyte is poorly understood and only few components are known. However, there is an urgent need to learn more about ectopic fat depots as mislocalized storage of lipids, for example in the liver or muscle, is an eminent health problem associated with insulin resistance or the metabolic syndrome. We developed a laser-scanning cytometer assay to enable 1,536-well screening and combined the results of the small molecules screen with an RNAi database based on lipid storage.
# Triacsin C (Sigma-Aldrich T-4540), an inhibitor of long-chain fatty acyl CoA synthetase that blocks synthesis of triglycerides, was used as a positive control for lipid under-storage. A total of 23 nL of compound solution of different concentrations were transferred to the assay plates using a Kalypsys pin tool equipped with a 1,536-pin array containing 10-nL slotted pins (FP1S10, 0.457-mm diameter, 50.8 mm long; V&P Scientific). One microliter of oleic acid (400 uM) was added, and the plate was lidded with stainless steel rubber gasket lined lids containing pinholes. […] Fluorescence was detected by excitation of the fluorophores with a 488-nm laser on an Acumen Explorer (TTP Lab Tech). The total intensity in channel 2 (500-530 nm) reflected lipid droplet accumulation. Cells were detected using channel 3 (575-640 nm) with 5-um width and 100-um depth filters. The ratio of the number of objects in PMT channel 2 over the number of objects in PMT channel 3 was also calculated. Percent activity was computed relative to an internal control (100% inhibited lipid droplet deposition due to the presence of 20 uM Triacsin C), which was added to 32 wells/plate.
# [1] = measured here: lipid fluorescence (Fed channel) AC50, cells fed with added oleic acid
# [2] = measured here: cell number channel AC50, cells fed with added oleic acid
Compound,cell number change,AC50 [1],AC50 [2]
O=C(c1cccs1)N(Cc1ccco1)c1nc(-c2ccc(F)cc2)cs1,-18.5%,"29.1 µM [falling, single point]",
O=C(Nc1nc(-c2cc3ccccc3oc2=O)cs1)c1ccco1,,,"2.91 µM [rising, single point]"
CN(C(=O)c1ccc(NC(=O)Cc2cccc(NC(=O)C3CCCN(C(=O)C4CCCC4)C3)c2)cc1)C1CCCC1 (configuration not stated),-15.3%,"6.51 µM [rising, single point]",
O=C(Nc1nnc(-c2ccc3c(c2)OCCO3)o1)C1CCCCC1,35.9%,"29.1 µM [rising, single point]","29.1 µM [rising, single point]"
O=C(NCC(c1ccco1)N1CCc2ccccc2C1)C(=O)Nc1cc(F)ccc1F (configuration not stated),31.5%,"29.1 µM [rising, single point]","7.31 µM [rising, partial curve, poor fit]"
CC(=O)N1CCc2cc(S(=O)(=O)CCC(=O)O)ccc21,-31.9%,"0.0058 µM [falling, full curve]","1.16 µM [falling, full curve]"
O=C(Cc1ccccc1F)NC1CCCc2ccccc21 (configuration not stated),,"0.0517 µM [falling, full curve, poor fit]",
COc1ccccc1NS(=O)(=O)c1cc([N+](=O)[O-])ccc1N/N=C/c1sc(N2CCOCC2)nc1-c1ccccc1,-36.5%,"0.291 µM [falling, full curve]","0.58 µM [falling, full curve]"
NC(=O)C1CCN(c2oc(-c3ccc(F)cc3)nc2S(=O)(=O)c2ccccc2)CC1,-1.17%,"9.2 µM [rising, partial curve, poor fit]",
COC(=O)c1cn(-c2ccccc2)nc1-c1ccncc1,0.905%,"2.06 µM [rising, full curve]",
Oc1c(/C=C/C=C/C=Nc2ccccc2)sc(=S)n1Cc1ccccc1,19.7%,,
COc1ccc(NC(=O)CSCc2ccc(C)cc2)cc1,42.6%,,
CCn1c(CCC(N)=O)nnc1SCC(=O)c1cc(C)n(C2CC2)c1C,-24.6%,,
Cc1cccc(N(C)C(=O)CCS(=O)(=O)c2cccc3nonc23)c1,6.15%,,
COc1ccc(CCNC(=O)c2ccc(CN3CCC(Cc4ccccc4)CC3)cc2)cc1,8.32%,"0.164 µM [rising, full curve, poor fit]",
Cn1cnc2c1c(=O)n(Cc1ccc(F)cc1Cl)c(=O)n2C,5.17%,"4.11 µM [rising, full curve, poor fit]",
COC(=O)c1ccccc1Sc1c(/C=N/OC(=O)c2ccccc2)c(C(F)(F)F)nn1C,,"5.17 µM [falling, partial curve]",
O=C(NCc1ccco1)c1ccc(NS(=O)(=O)c2cccc(F)c2)cc1,-6.29%,"6.31 µM [falling, single point]",
O=C(Nc1ccccc1)Nc1ccccc1C(=O)NCC1CC1,5.28%,"1.64 µM [rising, partial curve, poor fit]",

# Reformatted bar-delimited: part of the list above
Compound | cell number change | AC50 [1] | AC50 [2]
COC(=O)c1ccccc1Sc1c(/C=N/OC(=O)c2ccccc2)c(C(F)(F)F)nn1C |  | 5.17 µM [falling, partial curve] | 
O=C(NCc1ccco1)c1ccc(NS(=O)(=O)c2cccc(F)c2)cc1 | -6.29% | 6.31 µM [falling, single point] | 

# Following part:

Compound,cell number change,AC50 [1],AC50 [2]
Cc1ccc2oc(-c3ccc(NC(=O)c4cccnc4)cc3)nc2c1,74.6%,"14.6 µM [rising, partial curve]","11.6 µM [rising, partial curve]"
CCCC1=C(C(=O)OCC)C(c2ccccc2OC)NC(=O)N1 (configuration not stated),-0.32%,"0.116 µM [falling, single point]",
COc1ccc2[nH]c(=O)c(C(c3nnnn3C3CCCC3)N3CCN(Cc4ccc5c(c4)OCO5)CC3)cc2c1 (configuration not stated),29.8%,,
COc1ccc(C2NC(=O)NC(O)(C(F)(F)F)C2C(=O)c2ccc(C)cc2)cc1 (configuration not stated),5.36%,"3.26 µM [falling, single point]",
COCCNC(=O)COc1cccc(Oc2ccccc2)c1,9.36%,"0.231 µM [rising, full curve, poor fit]",
Cc1ccc(C(=O)N/C(=C\c2cn(C)c3ccccc23)C(=O)N2CCN(C)CC2)cc1,22.6%,,"6.51 µM [rising, single point]"
CC1CN(C(=O)/C=C/c2ccc(SC(F)F)cc2)CC(C)O1 (configuration not stated),19.4%,"29.1 µM [rising, partial curve]",
O=C1c2cccc3c(Cl)ccc(c23)C(=O)N1O,4.61%,,"0.92 µM [falling, full curve, poor fit]"
CCOc1ccc(C(C)NC(=O)C2CCCC2)cc1 (configuration not stated),,"0.651 µM [falling, single point]",
C=CCNC(=S)NNC(=O)COc1ccc(Cl)cc1Cl,-26.9%,"25.9 µM [falling, partial curve]",
COc1ccc(C2=Nn3c(nnc3-c3ccncc3)SC2)cc1OC,15.2%,"2.59 µM [rising, partial curve]",
CCOC(=O)N1CCN(S(=O)(=O)c2cc(Br)cnc2N)CC1,-52.5%,"4.61 µM [falling, full curve, poor fit]","0.291 µM [falling, partial curve, poor fit]"
O=C(CN1CCN(Cc2ccccc2)CC1)NCc1ccc(Cl)cc1,-28%,,"0.058 µM [falling, full curve, poor fit]"
COc1cccc2c1OCC1COc3c(c(=O)n(C)c(=O)n3C)C21 (configuration not stated),18.6%,,"0.0058 µM [rising, full curve, poor fit]"
O=C(NC(=S)NCCN1CCOCC1)c1ccc(Cl)cc1,-8.35%,,
CCn1c2ccccc2c2cc(NC(=O)C(=O)N3CCOCC3)ccc21,0.716%,"6.51 µM [falling, single point]","0.116 µM [falling, partial curve, poor fit]"
CCOc1ccc2[nH]c3c(NCCC(C)C)ncnc3c2c1,,"20.6 µM [falling, partial curve]","0.092 µM [falling, partial curve, poor fit]"
CCOC(=O)c1c(C)n(C)c2cc(-c3ccc(C)cc3)c(O)cc12,2.98%,"0.82 µM [rising, full curve, poor fit]",
Cc1ccc(Nc2c3c(nc4ncnn24)CC(C)CC3)cc1 (configuration not stated),16.6%,,
